In patent US20080124780A1, “Hybrid immobilized catalytic system with controlled permeability” (NORTHEASTERN UNIVERSITY, priority 2002, published 2008):

Test system: Horseradish peroxidase (HRP)
Assay: Loading efficiency of HRP into Ca^2+-alginate beads (OPD assay)
Details: 10 μg/ml HRP

For Horseradish peroxidase [HRP], the “HRP entrapped (loading efficiency)” value (beads cross-linked for 5 minutes) was “approximately 100%” and the “HRP entrapped (loading efficiency)” value (beads cross-linked for 45 minutes) was 42.8%.
